# “And” between values parts separate entries of the source, which are not always exact repeats. Equal values may be shown once. Where a name gives a salt, the structure may show the parent alone. ± gives the standard deviation of the averaged measurements. Some of the results follow. Plates or batches differ in their baseline, so values are only roughly comparable.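 Culture-activated primary human stellate myofibroblasts, where regained lipid droplets signal inactivation. Value: share of Hoechst-counted cells above a per-plate Bodipy cutoff, in duplicate wells, with DMSO negative and nortriptyline positive controls on each plate. Hits: a control-normalized score above the plate's top-tenth-percentile nortriptyline wells, or one of a plate's three best wells. Final well concentrations are not given.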
# Tested on: primary human hepatic stellate cells (donor 1)
# Test: percent Bodipy-positive cells; higher = more lipid droplet accumulation
# Conditions: 48 h
# [1] = library stock concentration: 1 mM
# [2] = library stock concentration: 10 mM
# [3] = library stock concentration: 3.33 mM
# [4] = library stock concentration: 80 uM
# [5] = library stock concentration: 400 uM
# [6] = library stock concentration: 2 mM
structure (smiles),measurement,setting,value
CCCCC[C@H](O)/C=C/[C@H]1[C@H](O)CC(=O)[C@@H]1CCCCCCC(=O)O [Prostaglandin E1],percent Bodipy-positive cells,[1],15.37 ± 0.052%
same,percent Bodipy-positive cells,[2],9.28 ± 4.2%
CCCCC[C@H](O)/C=C/[C@H]1[C@H](O)CC(=O)[C@@H]1CCCCCCC(=O)O [Alprostadil],percent Bodipy-positive cells,,10.7 ± 1.9%
same,percent Bodipy-positive cells,[3],16.1 ± 0.84%
same,percent Bodipy-positive cells,[2],14.3% and 8.52%
CCCCC[C@H](O)/C=C/[C@H]1[C@H](O)CC(=O)[C@@H]1CCCCCCC(=O)O [Prostaglandin  E1],percent Bodipy-positive cells,[1],10.1 ± 6.1%
COC(=O)[C@]12CCC(C)(C)C[C@H]1[C@H]1C(=O)C=C3[C@@]4(C)C=C(C#N)C(=O)C(C)(C)[C@@H]4CC[C@@]3(C)[C@]1(C)CC2 [Bardoxolone Methyl],percent Bodipy-positive cells,[3],100%
same,percent Bodipy-positive cells,[2],100%
CC(=O)Nc1ccc(C(=O)O)cc1,percent Bodipy-positive cells,[2],36.8 ± 1.8%
O=C(O)c1cccnc1C(=O)O [Quinolinic acid],percent Bodipy-positive cells,[2],16.8% and 18.2% and 6.08%
Cc1nc2c([nH]1)c(=O)n(C)c(=O)n2Cc1ccco1 [Furafylline],percent Bodipy-positive cells,library stock concentration: 7.7 mM,8.85 ± 3.8%
same,percent Bodipy-positive cells,[2],43.6 ± 18%
C[N+](C)(CCOc1ccccc1)Cc1ccccc1.O=C([O-])c1cc2ccccc2cc1O [Bephenium hydroxynaphthoate],percent Bodipy-positive cells,,9.62 ± 1.9%
c1cc(OCCN2CCCCC2)cc(-c2n[nH]c3ccc(-c4nnc[nH]4)cc23)c1,percent Bodipy-positive cells,[4],10.4 ± 3.1%
same,percent Bodipy-positive cells,[5],8.55% and 15.6%
CC(NCCc1ccc(O)cc1)C(O)c1ccc(O)cc1 (stereo not given) [Ritodrine HCl],percent Bodipy-positive cells,[3],6.62 ± 2.5%
same,percent Bodipy-positive cells,[2],12.8 ± 1%
CC(NCCc1ccc(O)cc1)C(O)c1ccc(O)cc1 (stereo not given) [Ritodrine hydrochloride],percent Bodipy-positive cells,,37.4 ± 9.1%
same,percent Bodipy-positive cells,library stock concentration: 6.2 mM,20.7 ± 1.1%
same,percent Bodipy-positive cells,[2],14.5% and 24.2%
CCC(C)C1OC2(CCC1C)CC1CC(CC=C(C)C(OC3CC(OC)C(OC4CC(OC)C(O)C(C)O4)C(C)O3)C(C)C=CC=C3COC4C(O)C(C)=CC(C(=O)O1)C34O)O2 (stereo not given) [Ivermectin],percent Bodipy-positive cells,[3],7.05 ± 0.69%
same,percent Bodipy-positive cells,[2],85.2 ± 1%
CCC1(C)CC(=O)NC1=O (stereo not given) [Ethosuximide],percent Bodipy-positive cells,,28.6 ± 7.3%
same,percent Bodipy-positive cells,library stock concentration: 14.2 mM,16 ± 1.8%
CC(=O)Nc1ccc(OC(C)=O)cc1,percent Bodipy-positive cells,[2],27 ± 2.2%
NC1CCN(c2c(F)cc3c(=O)c(C(=O)O)cn(C4CC4)c3c2Cl)C1 (stereo not given),percent Bodipy-positive cells,[2],30.3 ± 4.9%
CC(C)(O)CC(=O)NCCn1ccc2ncnc(Nc3ccc(Oc4cccc(C(F)(F)F)c4)c(Cl)c3)c21,percent Bodipy-positive cells,[3],9.43 ± 3.8%
same,percent Bodipy-positive cells,[2],47.41 ± 0.35%
C[C@H](Nc1ncnc2nc[nH]c12)c1cc2cccc(Cl)c2c(=O)n1-c1ccccc1,percent Bodipy-positive cells,[3],9.81 ± 0.95%
same,percent Bodipy-positive cells,[2],27.3 ± 14%
CCCNC(C)(C)COC(=O)c1ccccc1 [Meprylcaine hydrochloride],percent Bodipy-positive cells,,10.9 ± 2.9%
CCCCCC(=O)CC[C@@H]1[C@@H](C/C=C\CCCC(=O)OC(C)C)[C@@H](O)C[C@H]1O,percent Bodipy-positive cells,[1],10.3 ± 1.6%
CC(C)[C@H](NC(=O)OCc1ccccc1)C(=O)N[C@H](C=O)Cc1ccccc1,percent Bodipy-positive cells,[2],48.5 ± 5.9%
"OC[C@H]1NC[C@@H](O)[C@@H]1O [1,4-Dideoxy-1,4-imino-D-arabinitol]",percent Bodipy-positive cells,[2],39.1 ± 8.7%
O=S(=O)(c1cccc2cnccc12)N1CCCNCC1 [Fasudil],percent Bodipy-positive cells,library stock concentration: 6.9 mM,7.48 ± 2%
O=S(=O)(c1cccc2cnccc12)N1CCCNCC1,percent Bodipy-positive cells,[2],60.6 ± 7%
O=S(=O)(c1cccc2cnccc12)N1CCCNCC1 [Fasudil hydrochloride],percent Bodipy-positive cells,[2],12.3 ± 0.69%
O=S(=O)(c1cccc2cnccc12)N1CCCNCC1 [Fasudil (HA-1077) HCl],percent Bodipy-positive cells,[3],8.11 ± 3%
same,percent Bodipy-positive cells,[2],26.9 ± 5.9%
CCCCC[C@H](O)/C=C/[C@H]1C(=O)C[C@H](O)[C@@H]1C/C=C\CCCC(=O)OC [Prostaglandin D2 methyl ester],percent Bodipy-positive cells,[1],17.1 ± 15%
COc1cc2nc(N3CCCN(C)CC3)nc(NC3CCN(Cc4ccccc4)CC3)c2cc1OC,percent Bodipy-positive cells,[4],52.8 ± 7.5%
same,percent Bodipy-positive cells,[5],73.1 ± 4.5%
same,percent Bodipy-positive cells,[6],99.69 ± 0.44%
same,percent Bodipy-positive cells,[3],99.151 ± 0.096%
same,percent Bodipy-positive cells,[2],100%
CNCCCCOc1ccccc1Cc1ccccc1.Cl [Bifemelane hydrochloride],percent Bodipy-positive cells,[2],80.8 ± 0.92%
CN(C)CCOc1ccc(C(=C(CCCl)c2ccccc2)c2ccccc2)cc1.O=C(O)CC(O)(CC(=O)O)C(=O)O [Toremifene Citrate],percent Bodipy-positive cells,[2],96.22 ± 0.33%
CCCCC[C@H](O)/C=C/[C@H]1C(=O)C[C@H](O)[C@@H]1C/C=C\CCCC(=O)NCCO [Prostaglandin D2 Ethanolamide],percent Bodipy-positive cells,[1],14 ± 5.8%
CC(C)c1cnn2c(NCc3ccccc3)cc(NCCCCCCN)nc12,percent Bodipy-positive cells,[4],7.05 ± 0.89%
same,percent Bodipy-positive cells,[5],6.93 ± 0.91%
same,percent Bodipy-positive cells,[6],11.6 ± 8.3%
same,percent Bodipy-positive cells,[3],11.2 ± 3.1%
same,percent Bodipy-positive cells,[2],66.6% and 91.3%
NC1CONC1=O (racemic) [DL-Cycloserine],percent Bodipy-positive cells,[2],33.9 ± 16%
CCc1nn(CCCN2CCN(c3cccc(Cl)c3)CC2)c(=O)n1CCOc1ccccc1,percent Bodipy-positive cells,[2],72.3 ± 6.5%
CCc1nn(CCCN2CCN(c3cccc(Cl)c3)CC2)c(=O)n1CCOc1ccccc1 [Nefazodone],percent Bodipy-positive cells,[2],53.6 ± 18%
CCc1nn(CCCN2CCN(c3cccc(Cl)c3)CC2)c(=O)n1CCOc1ccccc1 [Nefazodone hydrochloride],percent Bodipy-positive cells,[2],34.2 ± 2.4%
CC(=O)Oc1ccc(C(c2ccc(OC(C)=O)cc2)c2ccccn2)cc1 [Bisacodyl],percent Bodipy-positive cells,,23.2 ± 1.9%
same,percent Bodipy-positive cells,[3],10.4 ± 1.9%
same,percent Bodipy-positive cells,[2],30% and 6.63%
CCOC(=O)CC(=O)N1CCSC1COc1ccccc1OC (stereo not given),percent Bodipy-positive cells,[2],32.9 ± 5.8%
CCOC(=O)CC(=O)N1CCSC1COc1ccccc1OC (stereo not given) [Moguisteine],percent Bodipy-positive cells,[3],10.6 ± 4.2%
same,percent Bodipy-positive cells,[2],17.5 ± 2.5%
N=c1nc(N2CCCCC2)cc(N)n1O [Minoxidil],percent Bodipy-positive cells,[2],33.5 ± 12%
CCCCS(=N)(=O)CCC(N)C(=O)O [L-Buthionine-sulfoximine],percent Bodipy-positive cells,[2],51.5 ± 6.9%
COc1cccc(OC)c1OCCNCC1CSc2ccccc2O1 (stereo not given) [Benoxathian hydrochloride],percent Bodipy-positive cells,[2],75.7 ± 5.2%
O=C(CSc1nc2c(c(=O)n1-c1ccccc1)SCC2)Nc1ccc(-c2ccccc2)cn1,percent Bodipy-positive cells,[3],30.2 ± 3.7%
same,percent Bodipy-positive cells,[2],32.8 ± 3%
C[C@@H]1CN(c2c(F)c(F)c3c(=O)c(C(=O)O)cn(C4CC4)c3c2F)C[C@H](C)N1,percent Bodipy-positive cells,[2],29.8 ± 6%
CCC(C)(C)C(=O)O[C@H]1C[C@@H](C)C=C2C=C[C@H](C)[C@H](CC[C@@H]3C[C@@H](O)CC(=O)O3)[C@H]21 [Simvastatin],percent Bodipy-positive cells,,31.4 ± 0.67%
same,percent Bodipy-positive cells,[3],29.1 ± 4.2%
CCCc1nn(C)c2c(=O)[nH]c(-c3cc(S(=O)(=O)N4CCN(C)CC4)ccc3OCC)nc12 [Sildenafil],percent Bodipy-positive cells,[2],38.3 ± 8.2%
CCCc1nn(C)c2c(=O)[nH]c(-c3cc(S(=O)(=O)N4CCN(C)CC4)ccc3OCC)nc12 [Sildenafil citrate salt],percent Bodipy-positive cells,[2],74.8 ± 2.8%
CCCc1nn(C)c2c(=O)[nH]c(-c3cc(S(=O)(=O)N4CCN(C)CC4)ccc3OCC)nc12 [Sildenafil Citrate],percent Bodipy-positive cells,[3],11.9 ± 0.21%
same,percent Bodipy-positive cells,[2],23.1 ± 4.8%

# 3 records picked at random from the list so far, as already listed:
structure (smiles),measurement,setting,value
CC(=O)Nc1ccc(C(=O)O)cc1,percent Bodipy-positive cells,[2],36.8 ± 1.8%
CCCc1nn(C)c2c(=O)[nH]c(-c3cc(S(=O)(=O)N4CCN(C)CC4)ccc3OCC)nc12 [Sildenafil],percent Bodipy-positive cells,[2],38.3 ± 8.2%
CCc1nn(CCCN2CCN(c3cccc(Cl)c3)CC2)c(=O)n1CCOc1ccccc1,percent Bodipy-positive cells,[2],72.3 ± 6.5%

# Reference: the supplement of paper PMC9135407
